Measurements as given in PubChem BioAssay AID540276 (National Center for Advancing Translational Sciences (NCATS), 2011).
Among all 300,000 compounds or so, about 5,400 (1.8%) were called active. The inconclusive results got no clear call from the source; some entries with a clear call stand among them for comparison. The call rests on the fitted dose curve; tested in HEK293 cells. A potency beside an inconclusive call is a rough fit, not a confirmed value.

test: qHTS for inhibitors of binding or entry into cells for Marburg Virus; conditions: Marburg virus pseudotyped entry inhibition, cell reporter; activity change, negative = inhibition: at 37.8 µM (top of the series) unless noted
On the % scale 0 is the no-effect control and ±100 the full control effect; potency means the concentration at half of the fitted maximal effect.

Row | SMILES | Potency | activity change, negative = inhibition
1 | Cc1nc(-c2ccccc2)nn1-c1ccc([N+](=O)[O-])cc1 | inconclusive: 1.58 µM [activator, partial curve, poor fit] | –
2 | Cc1ccc(NC(=O)CSc2nc(C)cc(C)c2C(=O)Nc2cccc(C)c2)cc1 | – | inactive: 3.83% [at 46.1 µM]
3 | CCc1ccc(CN(C)CC(=O)Nc2ccccc2[N+](=O)[O-])cc1 | inconclusive: 0.251 µM [inhibitor, partial curve, poor fit] | –
4 | CC(=O)c1ccc(NC(=O)C2CCCN(S(=O)(=O)c3c(C)[nH]c(=O)[nH]c3=O)C2)cc1 (configuration not stated) | – | inactive: 15.8%
5 | CCOC(=O)c1cccc(NC(=O)c2cc(-c3ccc(Cl)s3)nc3ccccc23)c1 | – | inactive: -4.14% [at 46.1 µM]
6 | Cc1ccc(NS(=O)(=O)c2ccc(C(=O)N3CCCCCCC3)cc2)cc1 | – | inactive: -22.7% [at 46.1 µM]
7 | O=C(NC(=S)NCC1CCCO1)c1ccc(Cl)cc1 (configuration not stated) | inconclusive: 3.55 µM [inhibitor, single point] | –
8 | COc1cnn(-c2ccccc2)c(=O)c1SCc1ccc(Cl)c(Cl)c1 | – | inactive: 0.115%
9 | Cc1cc(NC(=O)COC(=O)C2CCC2)no1 | inconclusive: 7.08 µM [activator, full curve, poor fit] | –
10 | COc1cc2nc(N3CCNCC3)nc(N)c2cc1OC | inconclusive: 20.6 µM [inhibitor, partial curve, poor fit] | –
11 | Cc1onc(-c2c(F)cccc2Cl)c1C(=O)NC1CCCCCC1 | inconclusive: 35.5 µM [inhibitor, single point] | –
12 | C[C@@H](C(=O)NCc1ccccc1)[C@H]1C[C@]1(C)[C@H](NC(=O)OCc1ccccc1)c1ccccc1 | inconclusive: 29.1 µM [inhibitor, single point] | –
13 | CCCc1nc(SCC(=O)Nc2ccc(N3CCOCC3)cc2)c2ccccc2n1 | active: 0.708 µM | –
14 | O=C(O)c1ccccc1C(=O)c1ccc(N2CCCC2)c([N+](=O)[O-])c1 | – | inactive: 13.2% [at 46.1 µM]
15 | COc1ccc(C2=NN(C(=O)c3cccs3)C(c3ccccc3OC)C2)cc1OC (configuration not stated) | inconclusive: 8.91 µM [inhibitor, partial curve] | –
16 | O=C(Cc1ccc(-c2ccccc2)cc1)NNC(=S)NCc1ccco1 | – | inactive: -30% [at 46.1 µM]
17 | Cn1c(=O)[nH]c(=O)c2c1nc(Br)n2Cc1cccc(Br)c1 | inconclusive: 2.24 µM [inhibitor, full curve] | –
18 | COc1ccc(CC(=O)OCC(=O)N2CCCc3ccccc32)cc1OC | – | inactive: 8.7% [at 46.1 µM]
19 | CN(Cc1cn(-c2ccccc2)nc1-c1cc2ccccc2o1)C(=O)CCC(=O)O | inconclusive: 2.82 µM [activator, single point] | –
20 | CC(NS(=O)(=O)c1ccc(Cl)cc1)C(=O)NCCC1=CCCCC1 (configuration not stated) | inconclusive: 10 µM [inhibitor, single point] | –
21 | O=C(Nc1c(C(=O)Nc2cccc(F)c2)oc2ccccc12)c1ccc2c(c1)OCO2 | inconclusive: 29.1 µM [inhibitor, single point] | –
22 | Cc1ccc(-n2c3c(cc(-c4nc(-c5ccc(Cl)cc5)cs4)c2=O)C(=O)CC(C)(C)C3)cc1 | – | inactive: 0.551% [at 46.1 µM]
23 | Cc1ccc(-c2ccc(CO)o2)cc1N | – | inactive: -13.2% [at 46.1 µM]
24 | COc1ccccc1C(=O)Nc1nnc(C)s1 | inconclusive: 1.16 µM [activator, single point] | –

Row | SMILES | Potency | activity change, negative = inhibition
25 | O=C(Cn1nc(C(F)(F)F)c2c1CCCC2)Nc1ccc(Cl)cc1 | inconclusive: 35.5 µM [inhibitor, single point] | –
26 | CCCCn1c(=O)c(C(=O)Nc2ccsc2C(=O)OC)c(O)c2ccccc21 | inconclusive: 1.26 µM [activator, single point] | –
27 | CCN1CCN(C(c2cccs2)C(C)NC(=O)c2cccnc2)CC1 (configuration not stated) | inconclusive: 4.11 µM [inhibitor, partial curve, poor fit] | –
28 | O=C(CCNc1ccc(Cc2ccncc2)cc1)c1ccc([N+](=O)[O-])cc1 | inconclusive: 35.5 µM [inhibitor, single point] | –
29 | Oc1ccc(/C=N/Nc2cc(N3CCOCC3)nc(N3CCOCC3)n2)cc1O | inconclusive: 7.94 µM [inhibitor, partial curve, poor fit] | –
30 | CCn1c(C)cc(=O)cc1-c1ccc(Cl)cc1 | inconclusive: 5.62 µM [activator, single point] | –
31 | CC(=O)Nc1ccc(/C=C(\C#N)C(N)=O)cc1 | inconclusive: 5.62 µM [activator, single point] | –
32 | COc1ccc(N2CCN(c3oc(-c4ccccc4OC)nc3C#N)CC2)cc1 | inconclusive: 25.9 µM [inhibitor, single point] | –
33 | O=C(NCC1CCCO1)c1c(O)nc2sccn2c1=O (configuration not stated) | – | inactive: -14.3% [at 46.1 µM]
34 | COc1ccc(NC(=O)c2ccco2)cc1NC(=O)COc1ccccc1Cl | – | inactive: 26.9% [at 46.1 µM]
35 | CC1CC(=O)C=C(O)C1C(=O)OC(C)(C)C (configuration not stated) | inconclusive: 17.8 µM [activator, single point] | –
36 | NC(=O)c1ccc(S(=O)(=O)N2CCSCC2)cc1 | – | inactive: 1.19% [at 46.1 µM]
37 | COC(=O)c1ccccc1S(=O)(=O)NNC(=O)C1COc2ccccc2O1 (configuration not stated) | – | inactive: 14.1% [at 46.1 µM]
38 | COC(=O)/C(C#N)=C1/C=Cc2ccccc2N1 | inconclusive: 0.891 µM [activator, single point] | –
39 | CC(/C=N/NC(=O)CSc1ccccn1)=C\c1ccc(C(C)C)cc1 | inconclusive: 18.4 µM [activator, partial curve, poor fit] | –
40 | O=C(NC1CCCCCC1)C1CCC(=O)N(Cc2ccccc2F)C1 (configuration not stated) | – | inactive: -2.29%
41 | COc1cccc(C(=O)NNC(=O)C(=O)Nc2cccc(Cl)c2C)c1 | inconclusive: 25.1 µM [inhibitor, single point] | –
42 | Oc1[nH]c2ccc(Br)cc2c1N=Nc1ccc(F)cc1 | – | inactive: 23.8% [at 46.1 µM]
43 | N#Cc1ccc(NC(=O)c2cc(-c3cccs3)on2)cc1 | – | inactive: -7.62% [at 46.1 µM]
44 | CC(=O)c1ccc(N2CCN(c3ccc(C(F)(F)F)cn3)CC2)cc1 | – | inactive: -3.28%
45 | COCCCC1CCN(Cc2nc(-c3ccccc3)no2)CC1 | inconclusive: 17.8 µM [activator, single point] | –
46 | COc1ccc(-n2nc(C(=O)N3CCN(c4cccc(C)c4)C(C)C3)c3c4ccccc4n(C)c3c2=O)cc1 (configuration not stated) | – | inactive: 2.64% [at 46.1 µM]
47 | CC1CCN(Cc2c(C(=O)N/N=C/c3cc(Cl)ccc3O)nnn2-c2nonc2N)CC1 | active: 3.55 µM | –

Part of the list above in a different format.
Row	SMILES	Potency	activity change, negative = inhibition
41	COc1cccc(C(=O)NNC(=O)C(=O)Nc2cccc(Cl)c2C)c1	inconclusive: 25.1 µM [inhibitor, single point]	–
42	Oc1[nH]c2ccc(Br)cc2c1N=Nc1ccc(F)cc1	–	inactive: 23.8% [at 46.1 µM]
43	N#Cc1ccc(NC(=O)c2cc(-c3cccs3)on2)cc1	–	inactive: -7.62% [at 46.1 µM]
